# Test results from the supplement of paper PMC8326762, “A Small Molecule Inhibitor of Pex3–Pex19 Interaction Disrupts Glycosome Biogenesis and Causes Lethality in Trypanosoma brucei” (Frontiers in Cell and Developmental Biology, 2021).
# Structures can show the parent of a compound that is named as a salt. This is one part of the list. The data scatter; read single values as rough.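 Optical density at 600 nm measured yeast growth. Because the two-hybrid strains grew without histidine, growth required Pex3–Pex19 binding. Trypanosome selectivity meant a compound inhibited the trypanosome-pair strain's growth by more than 65% but the human-pair strain's by less than 65%.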
# Test system: human PEX3-PEX19 interaction (yeast two-hybrid)
# Assay: growth inhibition of yeast two-hybrid strain reporting HsPex3-HsPex19 interaction, relative to DMSO; higher = stronger inhibition of human Pex3-Pex19 interaction / growth
# Settings: 100 µM; 24 h; 3-aminotriazole 10 mM
row,SMILES,growth inhibition [%]
1,CN(CC[C@@H](Oc1ccc(C(F)(F)F)cc1)c1ccccc1)CC(=O)[O-].[Li+],37.6
2,"C=CCn1c(=O)c2c(nc(-c3ccc(S(=O)(=O)O)cc3)n2C)n(C)c1=O [1-Allyl-3,7-dimethyl-8-p-sulfophenylxanthine]",7.23
3,O=C(NOCC1CC1)c1cc(Br)c(F)c(F)c1Nc1ccc(I)cc1Cl,24.1
4,Cc1cn[nH]c1 [4-Methylpyrazole hydrochloride],7.94
5,C[N+](C)(C)CCOP(=O)(O)OP(=O)([O-])OC[C@H]1O[C@@H](n2ccc(N)nc2=O)[C@H](O)[C@@H]1O [Cytidine 5'-diphosphocholine sodium salt hydrate],38
6,OC[C@H]1O[C@@H](n2cnc3c(NC4CCCC4)ncnc32)[C@H](O)[C@@H]1O [N6-Cyclopentyladenosine],36.4
7,O=C(CCc1ccncc1)NNC(=O)N1Cc2ccccc2Oc2ccc(Cl)cc21,38.2
8,CN(C)CCN(Cc1cccs1)c1ccccn1 [Methapyrilene hydrochloride],39.6
9,COc1ccc(Cl)cc1C(=O)NCCc1ccc(S(=O)(=O)NC(=O)NC2CCCCC2)cc1 [Glybenclamide],0.715
10,CSc1ccc2c(c1)C(N1CCN(C)CC1)Cc1ccccc1S2 (stereo not drawn) [Methiothepin mesylate],36.9
11,CC(C)NC[C@H](O)COc1cccc2[nH]ccc12 [S(-)-Pindolol],43.9
12,C=CCc1ccccc1OCC(O)CNC(C)C (stereo not drawn) [Alprenolol hydrochloride],-19
13,CC(C)(C)c1ccc(C(O)CCCN2CCC(C(O)(c3ccccc3)c3ccccc3)CC2)cc1 (stereo not drawn) [Terfenadine],76

# Reformatted with bars between the fields: 2 of the compounds above
row | SMILES | growth inhibition [%]
4 | Cc1cn[nH]c1 [4-Methylpyrazole hydrochloride] | 7.94
5 | C[N+](C)(C)CCOP(=O)(O)OP(=O)([O-])OC[C@H]1O[C@@H](n2ccc(N)nc2=O)[C@H](O)[C@@H]1O [Cytidine 5'-diphosphocholine sodium salt hydrate] | 38
